Key:
[1] = Amino acid interaction study (1H-NMR, HRMS); settings: equimolar Ac-L-Met-OMe, Ac-L-His-OMe, Ac-L-Cys-OMe, 24 h, room temperature
[2] = test system: HCT116 colorectal cancer cell line (2D); test: Resazurin assay, HCT116 2D (monolayer) culture; settings: HCT116, irrespective of 2D or 3D model

| SMILES | Adduct formation with protected amino acids [1] | Fold more active than mesylated counterpart (3c, 4c) [2] |
| --- | --- | --- |
| Cc1ccc(C(C)C)cc1.Cn1cc[n+]([Ru-]2[c]3ccccc3-c3csc[n+]32)c1.O=[N+]([O-])[O-] [Compound 3a, [((3-κN)-1-Methylimidazole)(4-phenylthiazolato-κN,κC2′)(η^6-p-cymene)ruthenium(II)] Nitrate] | no adduct formation was observed | at least 20 fold |
| Cc1ccc(C(C)C)cc1.Cn1cc[n+]([Ru-]2[c]3cc(S(C)(=O)=O)ccc3-c3csc[n+]32)c1.O=[N+]([O-])[O-] [Compound 3c, [((3-κN)-1-Methylimidazole)(4-(4-(methylsulfonyl)phenyl)thiazolato-κN,κC2′)(η^6-p-cymene)ruthenium(II)] Nitrate] | no adduct formation was observed |  |
| Cc1ccc(C(C)C)cc1.Cn1cc[n+]([Os-]2[c]3ccccc3-c3csc[n+]32)c1.O=[N+]([O-])[O-] [Compound 4a, [((3-κN)-1-Methylimidazole)(4-phenylthiazolato-κN,κC2′)(η^6-p-cymene)osmium(II)] Nitrate] |  | at least 20 fold |
